Laboratory results: publication PMC11555233
These are yes or no findings as the source states them, for the method shown. In cells and extracts the contact can be indirect. Binding calls can cover weak binding; strength is not graded here.

The chains behind the UniProt entries cited, without tags or fusion partners. Where a name states a change or a piece, a line headed by the entry shows the natural chain unless it says otherwise.
UniProt Q13485: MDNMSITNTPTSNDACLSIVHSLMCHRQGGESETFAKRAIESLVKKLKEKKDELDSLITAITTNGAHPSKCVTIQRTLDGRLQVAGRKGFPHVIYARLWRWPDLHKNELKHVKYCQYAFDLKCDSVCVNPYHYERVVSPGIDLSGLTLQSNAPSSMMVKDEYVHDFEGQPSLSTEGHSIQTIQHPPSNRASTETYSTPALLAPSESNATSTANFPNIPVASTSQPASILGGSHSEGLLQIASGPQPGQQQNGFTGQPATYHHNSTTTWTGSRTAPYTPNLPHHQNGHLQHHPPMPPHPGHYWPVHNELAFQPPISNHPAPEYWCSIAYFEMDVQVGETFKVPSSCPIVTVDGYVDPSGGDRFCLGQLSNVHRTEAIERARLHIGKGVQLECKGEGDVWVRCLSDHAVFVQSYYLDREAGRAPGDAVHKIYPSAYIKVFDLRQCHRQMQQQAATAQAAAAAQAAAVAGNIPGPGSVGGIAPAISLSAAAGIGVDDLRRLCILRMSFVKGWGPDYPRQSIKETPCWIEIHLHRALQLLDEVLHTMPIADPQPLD
UniProt P09874: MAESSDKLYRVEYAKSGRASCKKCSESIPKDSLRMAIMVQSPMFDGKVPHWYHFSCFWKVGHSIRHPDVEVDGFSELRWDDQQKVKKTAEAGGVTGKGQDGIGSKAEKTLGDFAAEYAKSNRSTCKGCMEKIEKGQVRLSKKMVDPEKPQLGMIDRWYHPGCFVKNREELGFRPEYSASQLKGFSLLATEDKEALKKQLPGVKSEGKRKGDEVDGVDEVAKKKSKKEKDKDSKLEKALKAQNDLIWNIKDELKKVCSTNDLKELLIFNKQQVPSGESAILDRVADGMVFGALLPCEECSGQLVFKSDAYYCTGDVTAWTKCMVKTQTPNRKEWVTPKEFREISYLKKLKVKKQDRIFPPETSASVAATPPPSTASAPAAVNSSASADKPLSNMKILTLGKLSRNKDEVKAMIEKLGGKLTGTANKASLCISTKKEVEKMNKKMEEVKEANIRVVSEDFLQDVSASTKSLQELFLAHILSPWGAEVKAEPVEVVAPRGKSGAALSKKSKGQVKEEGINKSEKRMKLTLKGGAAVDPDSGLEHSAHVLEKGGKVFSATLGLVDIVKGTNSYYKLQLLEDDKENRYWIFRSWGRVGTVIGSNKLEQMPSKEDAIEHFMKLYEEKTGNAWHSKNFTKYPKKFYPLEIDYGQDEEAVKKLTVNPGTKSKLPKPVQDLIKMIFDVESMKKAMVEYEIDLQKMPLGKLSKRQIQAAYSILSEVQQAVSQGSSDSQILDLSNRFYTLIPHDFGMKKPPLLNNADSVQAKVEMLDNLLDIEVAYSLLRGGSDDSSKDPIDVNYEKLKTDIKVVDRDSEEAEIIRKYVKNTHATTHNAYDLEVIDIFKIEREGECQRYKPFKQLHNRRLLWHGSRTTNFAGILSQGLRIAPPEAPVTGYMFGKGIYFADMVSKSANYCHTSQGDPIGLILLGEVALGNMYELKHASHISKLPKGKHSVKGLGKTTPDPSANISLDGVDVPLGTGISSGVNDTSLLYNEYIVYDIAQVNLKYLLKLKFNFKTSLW

Biological target: SMAD4-5KA mutant (UniProt Q13485)
Test: co-IP; HEK293FT cells with SMAD4 and PARP1 constructs (WT and mutants); lysis in NETN buffer (20 mM Tris-HCl pH 8.0, 100 mM NaCl, 1 mM EDTA, 0.5% NP-40), affinity beads overnight at 4 °C; bait of each panel not given

binding: binds
Substance: PARP1 (WT) (from UniProt P09874 1-1014)
